From PubChem BioAssay AID1439 (NMMLSC, 2008)
The campaign covered roughly 220,000 compounds. About 770 (0.35%) were called active. The shares of active, inactive and inconclusive entries below differ from those in the screen. Rule as the data show it: active = binding response below about 49% or above about 150%; inconclusive = no clear call, values can overlap the other calls; inactive = in between.

Protein sequences, listed by entry. Tags and fused reporters are not part of them.
UniProt P09471, whole entry, looked up: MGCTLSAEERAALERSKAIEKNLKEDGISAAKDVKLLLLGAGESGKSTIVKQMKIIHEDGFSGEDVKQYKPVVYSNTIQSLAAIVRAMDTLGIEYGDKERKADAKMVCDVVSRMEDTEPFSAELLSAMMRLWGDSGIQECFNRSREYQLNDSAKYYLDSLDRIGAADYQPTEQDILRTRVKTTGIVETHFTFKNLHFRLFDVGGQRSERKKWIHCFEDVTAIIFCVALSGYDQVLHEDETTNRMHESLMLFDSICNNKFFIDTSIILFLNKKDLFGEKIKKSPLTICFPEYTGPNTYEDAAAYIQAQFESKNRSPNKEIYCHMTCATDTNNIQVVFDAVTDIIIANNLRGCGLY

target: Guanine nucleotide-binding protein G(o) subunit alpha (Homo sapiens) (UniProt P09471); assay: compounds changing RGS7 association with Galphao – biochemical, multiplexed bead flow cytometry, primary screen (AID 1439); conditions: at 10 µM, actives lie on both sides;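 also: fluorescent Galphao held in activated GDP-AlF4 state binding bead-coupled RGS7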

| Structure (SMILES) | binding response (% of control) |
| --- | --- |
| O=C(CCC(=O)N1CCC2(CC1)OCCO2)Nc1nnc(C2CCCCC2)s1 | inconclusive: 340% |
| C=CCn1c(O)c(C(C)=NCCCn2ccnc2)c(=O)[nH]c1=O | inconclusive: 65.4% |
| CC(C)n1c(O)c(C2c3cc(Cl)ccc3Oc3[nH]c(=O)n(C(C)C)c(=O)c32)c(=O)[nH]c1=O (centres undefined) | inconclusive: 164% |
| Cc1ccccc1OCCCn1cc(C(=O)C(=O)N2CCOCC2)c2ccccc21 | inconclusive: 111% |
| Cn1c(O)c(C=NC2CCN(Cc3ccccc3)CC2)c(=O)[nH]c1=O | inconclusive: 113% |
| CNCCc1c[nH]c2ccccc12 | inconclusive: 102% |
| N#CC(C#N)=Cc1ccc(N2CCCC2)cc1 | active: 668% [activator] |
| O=C(C(=O)N1CCOCC1)c1cn(CCCOc2ccccc2)c2ccccc12 | inconclusive: 96.8% |
| CCN(CC)P(=S)(c1c(C)nc2ccccn12)c1c(C)nc2ccccn12 | inconclusive: 86.7% |
| Cn1c(O)c(C=NCCN2CCN(C(=O)Nc3ccccc3)CC2)c(=O)n(C)c1=O | inconclusive: 114% |
| C=CCn1c(O)c(C(C)=NC2CCN(Cc3ccccc3)CC2)c(=O)[nH]c1=O | inconclusive: 84.1% |
| Cc1c(N=Nc2c(O)n(-c3ccc(Br)cc3)c(=O)[nH]c2=O)c(=O)n(-c2ccccc2)n1C | inconclusive: 112% |
| CCC(=Nc1cccc(C(F)(F)F)c1)c1c(O)n(C)c(=O)n(C)c1=O | inconclusive: 134% |
| COCCCn1c(N)c(C(=O)Nc2ccccc2)c2nc3ccccc3nc21 | inconclusive: 131% |
| CC[n+]1c(SC)ccc2cc(OC)ccc21 | inactive: 101% |
| Cc1ccc(OCC(=O)N2CCN(Cc3ccc([N+](=O)[O-])cc3)CC2)cc1 | inconclusive: 76.2% |
| CC[N+]12CCC(CC1)C(C(O)(c1ccccc1)c1ccccc1)C2 (centres undefined) | inconclusive: 94.3% |
| CNC(=O)Nc1ccc(C(=O)N/N=C\C23CC[C@@H](O)CC2(O)CC[C@@H]2[C@@H]3CCC3(C)C(C4=CC(=O)OC4)CCC23O)cc1 (some centres undefined) | inconclusive: 61.8% |
| O=C(COC(=O)Cc1ccccc1)Nc1ccc(Cl)cn1 | inconclusive: 106% |
| C=C1C(=O)O[C@@H]2C[C@@H](C)[C@@H]3C=CC(=O)[C@@]3(C)[C@@H](O)[C@H]12 | inconclusive: 89% |
| Cn1c(O)c(/C=C/C=Nc2ccccc2)c(=O)n(C)c1=S | inactive: 115% |
| COc1cc([C@@H]2c3cc4c(cc3[C@@H](OC)[C@H]3COC(=O)[C@H]23)OCO4)cc(OC)c1O | inconclusive: 66.9% |
| Cc1ccc2c(c1)C(c1ccccc1)NCC(=O)N2 (centres undefined) | inactive: 102% |

| Structure (SMILES) | binding response (% of control) |
| --- | --- |
| O=C(C(=O)N1CCOCC1)c1cn(Cc2ccccc2Cl)c2ccccc12 | inconclusive: 106% |
| CN1C(=O)NC(=O)/C(=C/c2ccc([N+](=O)[O-])s2)C1=O | inconclusive: 62.2% |
| COc1ccc(CCN)cc1OC | inconclusive: 119% |
| CC(C)c1ccc(-n2c(O)c(/C=N/N3CCOCC3)c(=O)[nH]c2=S)cc1 | inconclusive: 95% |
| O=P(Oc1ccccc1)(Oc1ccccc1)c1ccccc1 | inconclusive: 97.4% |
| CCOc1ccc(N=Cc2c(O)n(Cc3ccccc3)c(=S)[nH]c2=O)cc1 | inconclusive: -1.74% |
| CN(CC1COc2ccccc2O1)c1nc(-c2cccnc2)nc2ccccc12 (centres undefined) | inactive: 92.1% |
| CC(C)C(=O)Nc1ccc(N2CCN(C)CC2)c(F)c1 | inactive: 104% |
| C[N+]12CCC(CC1)C(C(O)(c1cccc(Cl)c1)c1cccc(Cl)c1)C2 (centres undefined) | inconclusive: 116% |
| Oc1ccc(Cl)cc1CN1CCN(Cc2ccccc2)CC1 | inactive: 97.4% |
| CN1CCN(C(=O)COc2ccc(N(C)S(=O)(=O)c3ccc(F)cc3)cc2)CC1 | inconclusive: 107% |
| CNC(=O)c1cccn(Cc2ccc(C(F)(F)F)cc2)c1=O | inconclusive: 108% |
| COC(=O)c1cc(C(O)(C(=O)OC)C(F)(F)F)c(/N=C/N(C)C)s1 (centres undefined) | inactive: 95.8% |
| CCc1ccc(-c2nn(Cc3ccccc3)cc2C=O)cc1 | inactive: 103% |
| CCCCCCn1c(=O)c(C(=O)Nc2nc(CC(=O)OCC)cs2)c(O)c2ccccc21 | inconclusive: 497% |
| CC(C)Cc1nc(N2CCNCC2)c(C#N)c2c1CCC2 | inconclusive: 237% |
| CCOP(=O)(OCC)C(NC(=O)NC)C(N)=O (centres undefined) | inconclusive: 92.2% |
| O=C1NC(=O)N(c2cccc(F)c2)C(=O)/C1=C/c1ccc(N2CCOCC2)cc1 | inconclusive: 123% |
| CNC(=O)O/N=C/c1nn(C(=O)C(C)(C)C)cc1Br | inconclusive: 57% |
| C=CCn1c(O)c(C(C)=NCCc2c[nH]c3ccccc23)c(=O)[nH]c1=O | inconclusive: 97.7% |
| COc1ccc(-n2c(O)c(C(C)=NCc3ccc4c(c3)OCO4)c(=O)[nH]c2=O)cc1 | inconclusive: 97.9% |
| Cc1cccc(C)c1OP(N)(=O)OCC(F)(F)F (centres undefined) | inactive: 99.2% |
| CCCCCCC(=O)N/N=C/c1c(O)n(C(C)CC)c(=S)[nH]c1=O (centres undefined) | inconclusive: 252% |

| Structure (SMILES) | binding response (% of control) |
| --- | --- |
| CCOc1ccc2oc(C(=O)NN3C(C)CCCC3C)c(C)c2c1 (centres undefined) | inconclusive: 108% |
| O=C1OC(c2ccc(Cl)cc2)=N/C1=C\N1CC2CC(C1)c1cccc(=O)n1C2 (centres undefined) | inconclusive: 104% |
| Fc1c(F)c(F)c(N2CCNCC2)c(F)c1F | inconclusive: 100% |
| Cc1cc(C=C2C(=O)NC(=O)NC2=O)c(C)n1-c1cccnc1 | inconclusive: 87.5% |
| O=c1[nH]c(=S)[nH]c(O)c1/C=N/N1CCOCC1 | inconclusive: 99.9% |
| C[C@@H]1C2C[C@@]34COC(=O)C3=CC=C[C@H]4[C@@]13C[C@H](c1ccoc1)O[C@@H]3O2 | inactive: 105% |
| CCNC(=S)N(C)CCc1cc2c(c(OC)c1C=C1C(=O)N(C)C(=O)N(C)C1=O)OCO2 | inconclusive: 78.9% |
| O=C(O)c1nonc1-c1nonc1C(=O)O | inactive: 99.2% |
| CC1C(c2cccs2)=[N+]([O-])C(C)(C(=O)c2cccs2)N1O (centres undefined) | active: 159% [activator] |
| OC(Cn1c2ccccc2c2ccccc21)C[n+]1cccc2ccccc21 (centres undefined) | active: 154% [activator] |
| CC(=O)C1C2c3ccccc3O[C@@]1(C)N=c1s/c(=C/c3ccoc3)c(=O)n12 (some centres undefined) | inactive: 102% |
| O=c1[nH]cc(COCC(F)(F)C(F)(F)C(F)(F)F)c(=O)[nH]1 | inconclusive: 95.3% |
| COc1ccc(-c2nn(CCC#N)cc2C(=O)O)cc1 | inconclusive: 93.4% |
| COc1ccccc1Cn1c(SCC#N)nc2cc(C(=O)N3CCC4(CC3)OCCO4)ccc2c1=O | inactive: 105% |
| CCN(CC)C(=O)c1ccc(NC(=O)COc2ccccc2F)cc1 | inconclusive: 93.7% |
| CC(=O)CC(c1ccccc1[N+](=O)[O-])c1c(O)c2ccccc2oc1=O (centres undefined) | inconclusive: -85.1% |
| CN1CCN(c2c(C#N)c(C(F)(F)F)nn2C)CC1 | inconclusive: 86.5% |
| O=c1[nH]c(=O)n(C2CCCCC2)c(O)c1C1NCCc2ccccc21 (centres undefined) | inactive: 102% |
| CCOP(=S)(OCC)SCC(=O)NC(C)(CC)C(=O)O (centres undefined) | inactive: 93.9% |
| C[C@@H]1CC2(CCCC[N+]2(C)C)C[C@H]1C | inactive: 104% |
| CC(=O)c1cc(C#N)c(N2CCN(C)CC2)nc1C | inconclusive: 93.9% |
| O=C(N/N=C/c1c(O)n(Cc2ccco2)c(=O)[nH]c1=O)c1ccccc1O | inconclusive: 102% |
| CN1CCN(c2ccc([N+](=O)[O-])c3no[n+]([O-])c23)CC1 | inconclusive: 104% |

Look-ups from the entries so far.
In binding response (% of control), `OC(Cn1c2ccccc2c2ccccc21)C[n+]1cccc2ccccc21` (centres undefined) reads active: 154% [activator]
In binding response (% of control), `CCOc1ccc2oc(C(=O)NN3C(C)CCCC3C)c(C)c2c1` (centres undefined) reads inconclusive: 108%
In binding response (% of control), `CCN(CC)C(=O)c1ccc(NC(=O)COc2ccccc2F)cc1` reads inconclusive: 93.7%
In binding response (% of control), `CC(=O)c1cc(C#N)c(N2CCN(C)CC2)nc1C` reads inconclusive: 93.9%
In binding response (% of control), `O=C(N/N=C/c1c(O)n(Cc2ccco2)c(=O)[nH]c1=O)c1ccccc1O` reads inconclusive: 102%

(more compounds)

| Structure (SMILES) | binding response (% of control) |
| --- | --- |
| CC1CN=C(NC(C)c2ccccc2)S1 (centres undefined) | inconclusive: 110% |
| CNC(=O)O/N=C(\C)Cc1nnn(-c2cc(C)on2)n1 | inconclusive: 92.9% |
| Cc1n[nH]c(C)c1CCN | inactive: 102% |
| CC(C)CN1CCN(Cc2cccc3c2OCO3)CC1CCO (centres undefined) | inconclusive: 93.5% |
| C=CCn1c(O)c(C(C)=Nc2cccc(C(F)(F)F)c2)c(=O)[nH]c1=O | inconclusive: 101% |
| CC(C)CN1CCN(Cc2ccc(C(F)(F)F)cc2)CC1CCO (centres undefined) | inconclusive: 128% |
| CC1CN=C(Nc2ccc(F)c(Cl)c2)S1 (centres undefined) | inconclusive: 44.5% |
| CCOP(=O)(OCC)Oc1cc(C)c(N(C)C)c(C)c1 | inconclusive: 44.1% |
| O=P(O)(O)C#Cc1ccccc1 | inactive: 97% |
| O=[N+]([O-])c1cc(F)c(N2CCCCCC2)cc1N1CCNCC1 | inconclusive: 121% |
| OC(CNC1CCCCCCC1)c1ccccc1 (centres undefined) | inconclusive: 80.4% |
| C/C(=N\Nc1ccccc1)c1c(O)n(C)c(=O)n(C)c1=O | inactive: 106% |
| C=C(COC(C)=O)CC1CC(O)[C@]2(C)OC3CC4OC5C[C@]6(C)O[C@]7(C)CCC8OC9C[C@]%10(C)OC%11C(C)=CC(=O)OC%11CC%10OC9C[C@@H](C)C8OC7CC6O[C@]5(C)C/C=C\C4OC3CC2O1 (some centres undefined) | inconclusive: 93.1% |
| Cc1cc([N+](=O)[O-])c2ccccc2[n+]1[O-] | inconclusive: 65.4% |
| CNP(=S)(NC)OCCOc1ccc(OC)cc1 | inactive: 111% |
| CN1CCN(c2ccc([N+](=O)[O-])cc2Cl)CC1 | active: 48.9% |
| CCOC(=O)C1=C(NC(=S)NC(=O)c2ccccc2)c2ccccc2CC12CCCC2 | inactive: 103% |
| CC(C)(C#CCCCCC#CC(C)(C)[N+](C)(C)C)[N+](C)(C)C | inconclusive: 108% |
| O=C(O)[C@H]1NC[C@H]2C[C@H]21 | inactive: 99.8% |
| Cc1cc(C)cc(N2C(=O)/C(=C\c3ccc(N4CCN(C)CC4)o3)C(=O)NC2=S)c1 | inconclusive: 141% |
